Measurements from US6638907 (BIOSTRATUM, dated 2003).
These are yes or no findings as the source states them, for the method shown. Some results given as binding are weak or reduced against the parent protein; the word gives no strength.

Sequences of proteins named here, by UniProt entry; tags and fusion partners are left off. A change or cut given only in a name is not applied to a line headed by its entry.
UniProt P23229: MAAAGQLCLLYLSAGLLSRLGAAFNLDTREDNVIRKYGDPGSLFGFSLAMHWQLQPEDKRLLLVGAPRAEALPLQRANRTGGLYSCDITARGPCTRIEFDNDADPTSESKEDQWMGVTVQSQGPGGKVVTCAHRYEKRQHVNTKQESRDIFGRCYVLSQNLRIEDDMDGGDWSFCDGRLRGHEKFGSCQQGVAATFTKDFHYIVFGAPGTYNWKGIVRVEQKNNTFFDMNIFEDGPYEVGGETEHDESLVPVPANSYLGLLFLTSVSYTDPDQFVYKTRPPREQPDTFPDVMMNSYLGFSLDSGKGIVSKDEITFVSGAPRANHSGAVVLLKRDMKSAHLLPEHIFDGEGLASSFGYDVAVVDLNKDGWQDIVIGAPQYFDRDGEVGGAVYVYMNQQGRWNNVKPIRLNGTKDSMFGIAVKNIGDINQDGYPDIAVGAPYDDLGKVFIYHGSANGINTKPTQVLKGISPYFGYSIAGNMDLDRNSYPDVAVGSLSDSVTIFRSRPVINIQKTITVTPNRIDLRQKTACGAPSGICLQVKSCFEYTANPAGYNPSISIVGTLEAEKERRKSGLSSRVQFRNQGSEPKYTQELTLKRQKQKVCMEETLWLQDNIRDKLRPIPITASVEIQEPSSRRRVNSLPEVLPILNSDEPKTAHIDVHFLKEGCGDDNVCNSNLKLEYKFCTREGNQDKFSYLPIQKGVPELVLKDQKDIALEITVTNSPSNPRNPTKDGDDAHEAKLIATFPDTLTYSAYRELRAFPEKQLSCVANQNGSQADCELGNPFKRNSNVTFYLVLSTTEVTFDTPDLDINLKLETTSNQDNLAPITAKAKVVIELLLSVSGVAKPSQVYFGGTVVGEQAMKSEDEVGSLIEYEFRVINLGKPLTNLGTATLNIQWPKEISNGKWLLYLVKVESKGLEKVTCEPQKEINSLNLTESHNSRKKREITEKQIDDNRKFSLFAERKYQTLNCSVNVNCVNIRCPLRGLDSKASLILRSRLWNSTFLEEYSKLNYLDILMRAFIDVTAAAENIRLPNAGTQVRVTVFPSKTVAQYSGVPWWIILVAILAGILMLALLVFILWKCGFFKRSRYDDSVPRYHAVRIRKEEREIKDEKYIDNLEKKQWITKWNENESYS
UniProt P05556: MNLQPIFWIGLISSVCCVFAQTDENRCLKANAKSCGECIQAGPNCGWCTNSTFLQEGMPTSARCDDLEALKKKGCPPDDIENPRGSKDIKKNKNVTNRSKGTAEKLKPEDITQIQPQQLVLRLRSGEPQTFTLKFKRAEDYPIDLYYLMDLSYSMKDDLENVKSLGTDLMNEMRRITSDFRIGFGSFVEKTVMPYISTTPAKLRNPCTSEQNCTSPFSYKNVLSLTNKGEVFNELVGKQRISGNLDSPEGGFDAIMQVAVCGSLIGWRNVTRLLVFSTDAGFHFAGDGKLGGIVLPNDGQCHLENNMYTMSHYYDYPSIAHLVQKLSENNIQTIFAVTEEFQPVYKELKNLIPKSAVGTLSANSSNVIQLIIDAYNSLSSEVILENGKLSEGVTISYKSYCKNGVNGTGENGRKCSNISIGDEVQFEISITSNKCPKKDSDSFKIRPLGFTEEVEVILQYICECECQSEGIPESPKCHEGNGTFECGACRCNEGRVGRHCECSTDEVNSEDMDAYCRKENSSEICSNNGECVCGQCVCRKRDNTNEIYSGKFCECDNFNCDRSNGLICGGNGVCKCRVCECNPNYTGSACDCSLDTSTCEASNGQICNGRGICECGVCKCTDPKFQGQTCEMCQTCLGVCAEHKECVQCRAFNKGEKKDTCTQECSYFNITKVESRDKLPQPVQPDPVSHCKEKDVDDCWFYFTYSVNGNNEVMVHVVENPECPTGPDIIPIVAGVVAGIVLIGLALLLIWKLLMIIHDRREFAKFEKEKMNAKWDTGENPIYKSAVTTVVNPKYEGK
UniProt P19137: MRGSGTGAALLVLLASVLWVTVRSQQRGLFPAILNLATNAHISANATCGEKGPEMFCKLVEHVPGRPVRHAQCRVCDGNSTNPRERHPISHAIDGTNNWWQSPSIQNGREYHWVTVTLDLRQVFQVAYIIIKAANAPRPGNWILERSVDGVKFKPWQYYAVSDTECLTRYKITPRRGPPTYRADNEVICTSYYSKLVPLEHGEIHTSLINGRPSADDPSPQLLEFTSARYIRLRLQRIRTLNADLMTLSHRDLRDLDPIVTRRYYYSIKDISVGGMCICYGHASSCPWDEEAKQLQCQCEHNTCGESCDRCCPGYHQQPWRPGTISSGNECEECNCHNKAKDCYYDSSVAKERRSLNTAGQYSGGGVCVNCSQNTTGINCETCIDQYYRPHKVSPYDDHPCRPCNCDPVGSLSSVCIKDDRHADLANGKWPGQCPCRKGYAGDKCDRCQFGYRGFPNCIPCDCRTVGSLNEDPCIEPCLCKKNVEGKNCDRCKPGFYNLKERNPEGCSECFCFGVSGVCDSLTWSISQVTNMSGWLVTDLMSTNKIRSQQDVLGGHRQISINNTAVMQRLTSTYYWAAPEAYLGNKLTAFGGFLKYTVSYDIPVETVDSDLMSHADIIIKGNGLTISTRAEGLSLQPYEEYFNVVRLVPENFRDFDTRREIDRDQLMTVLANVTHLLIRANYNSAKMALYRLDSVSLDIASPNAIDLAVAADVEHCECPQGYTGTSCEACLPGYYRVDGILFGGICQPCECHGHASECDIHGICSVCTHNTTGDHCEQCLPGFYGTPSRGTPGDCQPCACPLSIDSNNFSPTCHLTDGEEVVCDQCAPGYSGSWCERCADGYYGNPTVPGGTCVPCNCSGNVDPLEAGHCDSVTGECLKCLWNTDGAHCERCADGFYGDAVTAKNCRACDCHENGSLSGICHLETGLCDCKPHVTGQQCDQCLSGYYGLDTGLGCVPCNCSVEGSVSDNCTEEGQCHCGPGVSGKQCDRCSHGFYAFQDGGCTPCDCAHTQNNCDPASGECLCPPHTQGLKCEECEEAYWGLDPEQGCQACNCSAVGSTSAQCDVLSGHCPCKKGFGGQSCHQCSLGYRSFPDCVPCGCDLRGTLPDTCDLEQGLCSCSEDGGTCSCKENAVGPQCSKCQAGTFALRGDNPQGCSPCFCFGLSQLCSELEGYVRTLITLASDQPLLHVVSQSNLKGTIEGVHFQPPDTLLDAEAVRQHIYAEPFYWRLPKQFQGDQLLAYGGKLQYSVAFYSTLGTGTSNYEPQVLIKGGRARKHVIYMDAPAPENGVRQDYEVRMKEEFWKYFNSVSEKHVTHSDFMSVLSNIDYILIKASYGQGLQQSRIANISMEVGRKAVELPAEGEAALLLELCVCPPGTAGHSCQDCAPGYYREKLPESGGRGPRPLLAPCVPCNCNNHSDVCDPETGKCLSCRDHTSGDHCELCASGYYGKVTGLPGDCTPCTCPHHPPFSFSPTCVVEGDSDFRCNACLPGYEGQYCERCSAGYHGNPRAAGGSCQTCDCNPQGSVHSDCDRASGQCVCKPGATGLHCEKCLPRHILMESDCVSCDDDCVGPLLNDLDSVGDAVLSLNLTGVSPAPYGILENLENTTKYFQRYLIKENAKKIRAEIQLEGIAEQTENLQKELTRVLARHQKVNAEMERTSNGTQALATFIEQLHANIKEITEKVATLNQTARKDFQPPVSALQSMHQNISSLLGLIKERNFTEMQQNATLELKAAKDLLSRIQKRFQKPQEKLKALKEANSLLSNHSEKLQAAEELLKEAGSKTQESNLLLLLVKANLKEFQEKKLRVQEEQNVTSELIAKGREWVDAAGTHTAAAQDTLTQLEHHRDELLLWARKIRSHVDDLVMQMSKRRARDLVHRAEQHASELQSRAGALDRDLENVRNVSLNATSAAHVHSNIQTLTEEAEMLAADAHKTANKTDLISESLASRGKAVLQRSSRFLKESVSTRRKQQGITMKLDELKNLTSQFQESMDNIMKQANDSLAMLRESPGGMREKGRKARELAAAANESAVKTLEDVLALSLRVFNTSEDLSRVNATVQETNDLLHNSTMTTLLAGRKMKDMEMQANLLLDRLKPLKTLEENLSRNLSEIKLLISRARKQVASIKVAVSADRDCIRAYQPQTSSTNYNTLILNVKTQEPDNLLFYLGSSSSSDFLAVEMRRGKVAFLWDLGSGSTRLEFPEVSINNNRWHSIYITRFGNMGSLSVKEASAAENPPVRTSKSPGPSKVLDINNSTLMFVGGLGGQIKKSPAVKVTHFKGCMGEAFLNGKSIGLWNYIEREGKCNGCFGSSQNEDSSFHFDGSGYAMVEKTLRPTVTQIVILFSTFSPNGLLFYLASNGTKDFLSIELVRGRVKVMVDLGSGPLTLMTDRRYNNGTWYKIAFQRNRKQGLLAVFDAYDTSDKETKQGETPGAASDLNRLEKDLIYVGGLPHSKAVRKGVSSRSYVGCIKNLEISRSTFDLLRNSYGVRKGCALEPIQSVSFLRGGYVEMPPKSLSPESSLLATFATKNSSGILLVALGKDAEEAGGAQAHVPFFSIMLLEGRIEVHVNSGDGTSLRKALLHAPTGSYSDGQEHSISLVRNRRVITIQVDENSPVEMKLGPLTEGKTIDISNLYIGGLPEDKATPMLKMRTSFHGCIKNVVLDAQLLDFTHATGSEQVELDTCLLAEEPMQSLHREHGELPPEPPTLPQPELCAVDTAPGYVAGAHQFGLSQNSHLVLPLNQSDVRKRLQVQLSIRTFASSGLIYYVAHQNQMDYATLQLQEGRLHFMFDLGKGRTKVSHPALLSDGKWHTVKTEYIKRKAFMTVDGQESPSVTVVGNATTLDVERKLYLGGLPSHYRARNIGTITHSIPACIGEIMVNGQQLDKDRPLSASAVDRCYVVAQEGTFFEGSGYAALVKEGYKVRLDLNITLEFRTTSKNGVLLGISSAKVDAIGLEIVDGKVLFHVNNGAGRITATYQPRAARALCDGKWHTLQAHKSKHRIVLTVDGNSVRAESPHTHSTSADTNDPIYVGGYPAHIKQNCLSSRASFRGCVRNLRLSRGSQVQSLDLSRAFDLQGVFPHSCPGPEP

Molecular target: integrin α6β1 on human cells (α6-transfected K562 cells; HT-1080 cells) (human) (UniProt P23229+P05556)
Experiment: adhesion of α6-transfected K562 cells to coated laminin 1

binding: binds
Substance: Laminin 1 from EHS-tumor (from UniProt P19137 25-3083; P02469 22-1786; P02468 34-1607)
